{
  "sequences": {"note": "Protein sequences, listed by entry. Tags and fused reporters are not part of them.", "UniProt O95292": "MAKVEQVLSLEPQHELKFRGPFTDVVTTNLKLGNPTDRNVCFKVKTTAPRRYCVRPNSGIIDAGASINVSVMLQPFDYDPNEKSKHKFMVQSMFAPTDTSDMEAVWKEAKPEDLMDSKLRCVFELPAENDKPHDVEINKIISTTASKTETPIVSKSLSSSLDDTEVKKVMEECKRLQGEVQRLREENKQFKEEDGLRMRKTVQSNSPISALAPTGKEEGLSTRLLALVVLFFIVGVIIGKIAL"},
  "source": "paper PMC5294785",
  "target": "T1, EGFP-rACBD5 (acyl-coenzyme A-binding domain protein 5) (UniProt A0FKI7)",
  "T1 sequence": "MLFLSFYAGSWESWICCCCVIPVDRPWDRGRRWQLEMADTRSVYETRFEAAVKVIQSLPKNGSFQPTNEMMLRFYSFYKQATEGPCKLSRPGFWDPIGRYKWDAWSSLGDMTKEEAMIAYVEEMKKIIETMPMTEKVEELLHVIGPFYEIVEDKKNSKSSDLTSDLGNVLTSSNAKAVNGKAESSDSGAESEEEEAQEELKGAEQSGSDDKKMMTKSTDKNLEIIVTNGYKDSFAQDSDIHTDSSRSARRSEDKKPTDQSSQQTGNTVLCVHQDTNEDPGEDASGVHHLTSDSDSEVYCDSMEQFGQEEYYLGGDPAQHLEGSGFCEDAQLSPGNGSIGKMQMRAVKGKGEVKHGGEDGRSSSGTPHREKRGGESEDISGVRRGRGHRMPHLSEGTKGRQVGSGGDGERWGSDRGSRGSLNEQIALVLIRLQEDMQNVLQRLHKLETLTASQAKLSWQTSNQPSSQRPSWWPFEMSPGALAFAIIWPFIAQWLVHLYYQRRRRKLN",
  "experiment": "affinity purification with mass spectrometry; GFP-TRAP agarose beads with lysates of HepG2 cells expressing EGFP-rACBD5 (EGFP-only vector as control), 1% NP-40, overnight at 4°C, washes with 1 M NaCl; three experiments, label-free peptide counting",
  "note": "These are yes or no findings as the source states them, for the method shown. In cells and extracts the contact can be indirect. These calls come from enrichment with a bait or labelling near it, and not all partners need be listed. Tags and fused reporters may be left off the sequences shown.",
  "data": [
    {"substance": "vesicle-associated membrane protein-associated protein B (VAPB), endogenous (from UniProt O95292 1-243)", "values": [
      {"measurement": "binding", "result": "binds"}
    ]}
  ]
}
